According to publication PMC7819943, “Rice protein-binding microarrays: a tool to detect cis-acting elements near promoter regions in rice”:
Some of the results follow.

The sequences below were run against T1, OsSMF1 (Oryza sativa, UniProt Q6ZLB0 1-436) (assay: protein-binding microarray (RPBM); PBS, 2% BSA, 51.3 ng/ul salmon testes DNA, 50 uM zinc acetate, 200 nM TF, 25 C, 1 h; high values mean tight binding). Conditions: protein: recombinant; tags: N-terminal polyhistidine and DsRed monomer fusion (pET32a); chain copies: 2; label: CyDye5-dUTP incorporated in the synthesized complementary strand; 3' TTTTT single-stranded linker to array surface; dsDNA, one strand shown.
T1 sequence: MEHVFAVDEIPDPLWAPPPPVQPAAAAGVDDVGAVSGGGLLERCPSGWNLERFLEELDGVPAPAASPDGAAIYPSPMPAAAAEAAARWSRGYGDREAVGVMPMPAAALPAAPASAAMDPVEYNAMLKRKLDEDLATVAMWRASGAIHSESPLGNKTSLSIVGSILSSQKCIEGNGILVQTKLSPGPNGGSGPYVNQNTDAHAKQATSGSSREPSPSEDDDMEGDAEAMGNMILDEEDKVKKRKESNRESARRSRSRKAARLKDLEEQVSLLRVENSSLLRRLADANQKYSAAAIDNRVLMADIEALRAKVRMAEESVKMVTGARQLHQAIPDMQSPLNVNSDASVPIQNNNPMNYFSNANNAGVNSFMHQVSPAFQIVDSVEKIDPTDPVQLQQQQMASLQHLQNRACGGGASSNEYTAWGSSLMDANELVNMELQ
Outline: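 Using Ni–NTA, transcription factors fused N-terminally to polyhistidine and DsRed were purified after expression in E. coli BL21-CodonPlus. These were incubated at 200 nM with a blocked, double-stranded custom Agilent array for 1 h at 25 °C in a buffer containing 50 µM zinc acetate, and the array was washed. The binding signal is per-feature fluorescence intensity (arbitrary units) on an Axon 4000B scanner.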

In order of rising binding signal:
1. ATACCGACTTGGTTCTAAGAGTTGTCATAACATCTCGATCCGGAGTCACCTAGTGCAG  3180 fluorescence intensity (a.u.)
2. GCTATAGGTGAGTAACCCGTGACAGTTCATTTATATCCGGCGGAGTCACCTAGTGCAG  3190 fluorescence intensity (a.u.)
3. TGACCTGATTACTGACTGACTAATGAGGTGATGCAGATTTCGGAGTCACCTAGTGCAG  3200 fluorescence intensity (a.u.)
4. CAGGTGGTGGTGGCCATTAGTTAGTGGCAAATGTGGAAGGCGGAGTCACCTAGTGCAG  3220 fluorescence intensity (a.u.)
5. ACTCCCCATGCATGGACATGTGCATAATGCGTGCGTCGCCCGGAGTCACCTAGTGCAG  3240 fluorescence intensity (a.u.)
6. TTTCCGGAGGACCCCGTCCCAACTCTTGATGACACGCTGCCGGAGTCACCTAGTGCAG  3250 fluorescence intensity (a.u.)
7. TACAACAAACCTAACATCAGCTACTTGTCATCGATCATCACGGAGTCACCTAGTGCAG  3270 fluorescence intensity (a.u.)
8. CAGTTACGCGCCGTGCCTACCCGTGTATCACCGCGATGAGCGGAGTCACCTAGTGCAG  3270 fluorescence intensity (a.u.)
9. TGGGTGAGAGTTTGAACCCGAACATATGACACATCTATGTCGGAGTCACCTAGTGCAG  3270 fluorescence intensity (a.u.)
10. TAATTTGATCACGCACATCAGCTCATGATCTCAATCCTCGCGGAGTCACCTAGTGCAG  3310 fluorescence intensity (a.u.)
11. GCACCACTGCTCCACCGCCAACTAAACTTCCGCCGGCGTGCGGAGTCACCTAGTGCAG  3390 fluorescence intensity (a.u.)
12. ATTTCCAGTAAAAGTGGCATTGTTCAGACTTCAGTCATTACGGAGTCACCTAGTGCAG  3530 fluorescence intensity (a.u.)
13. ATTTATAGCTGTACGCCCGCATACTTCTGCAGTCAGCAAACGGAGTCACCTAGTGCAG  3540 fluorescence intensity (a.u.)
14. AGGGGACAAAACACCATGGCCTCGCCGGCGTATTGAGTGGCGGAGTCACCTAGTGCAG  3560 fluorescence intensity (a.u.)
15. CCCACAGACCCTCGGGTCCACATGTCAGTCTGCAGTACTTCGGAGTCACCTAGTGCAG  3600 fluorescence intensity (a.u.)
16. CGACGAGGAGGCCGGGGATGGAGCCGACGGTGCGGATGTCCGGAGTCACCTAGTGCAG  3810 fluorescence intensity (a.u.)
17. ATAATTAGTCGTAACTACGAGCACCTGTATCAAGTCATGCCGGAGTCACCTAGTGCAG  3820 fluorescence intensity (a.u.)
18. ATATTTGGTCCCACCTGTCATACACATATTACGTATTGGACGGAGTCACCTAGTGCAG  3860 fluorescence intensity (a.u.)
19. ATAAACCTAGCACACATGATGTGAGCGTCATCTATCTAAACGGAGTCACCTAGTGCAG  3960 fluorescence intensity (a.u.)
20. AATAACTGATGACTGTGAATGATTGATACGATGTAGTAGGCGGAGTCACCTAGTGCAG  4020 fluorescence intensity (a.u.)
21. AAAAGGTTACGACTAACTTTTGCGTGTGTGTAATCTTTGCCGGAGTCACCTAGTGCAG  4210 fluorescence intensity (a.u.)
22. GCCGCCGCCGCGGCATACCACGCGCAGGTGAGCCCGTTCCCGGAGTCACCTAGTGCAG  4380 fluorescence intensity (a.u.)
23. GATTACCTGATTACCTGATTACCTGTGTCACTGACAACTCCGGAGTCACCTAGTGCAG  4430 fluorescence intensity (a.u.)
24. CGAACCACGCAAATAATACTACACACGCGCGTCACGGACACGGAGTCACCTAGTGCAG  4640 fluorescence intensity (a.u.)
25. AAAGAAGAAATCCACCTGACCCCGCGCCACCTGTCGCCTCCGGAGTCACCTAGTGCAG  5530 fluorescence intensity (a.u.)
26. CCGCGGTGGCTCCGGCCCAGCCCGCCTGAACCCTAGAGGGCGGAGTCACCTAGTGCAG  5540 fluorescence intensity (a.u.)
27. CTCCCTGCAAACCGCGCCACGCGGCCGCTCCGGAGCCTCACGGAGTCACCTAGTGCAG  5560 fluorescence intensity (a.u.)
28. TTGGATTGCAGTGGGGCGGACGGCGGTGGGCGGGGCTTCTCGGAGTCACCTAGTGCAG  5880 fluorescence intensity (a.u.)
29. TCAAATCAGAAATGAGGATCCTACATCACAAGTTGGCAAGCGGAGTCACCTAGTGCAG  6340 fluorescence intensity (a.u.)
30. CATTTTAATGTTGGATCAATTGCGTGTCACAGATTGAGTGCGGAGTCACCTAGTGCAG  6770 fluorescence intensity (a.u.)
31. TGGAGTACGTCATCGACATCGATCCCGCAACGTGTGCCTCCGGAGTCACCTAGTGCAG  9360 fluorescence intensity (a.u.)
32. TAAGCGAAGCATACCTGACGTGTTAGCTCATTGTAACTCGCGGAGTCACCTAGTGCAG  9900 fluorescence intensity (a.u.)
33. AGGATAGCCTCGTGCTGTACGTGCTGTACAACGCGGTGGTCGGAGTCACCTAGTGCAG  12300 fluorescence intensity (a.u.)
34. GGGAAACGAGTCAAGCTGACGTGTGCAAGAATCTCCTACACGGAGTCACCTAGTGCAG  13500 fluorescence intensity (a.u.)
35. CTAGAGCACATCACGATCACACTTCACCCATTGAGCCGCCCGGAGTCACCTAGTGCAG  16000 fluorescence intensity (a.u.)
36. CATCGCACGAAATTAATATGATGCCACGTCCTCATACTAGCGGAGTCACCTAGTGCAG  17500 fluorescence intensity (a.u.)
37. TAGAAGAACAACCATTGTATAGGAAGTAGGAACCAGTGCACGGAGTCACCTAGTGCAG  25600 fluorescence intensity (a.u.)
38. TGTGATGTTAGATTATGCTTTACTTTGAACTTTGAAGTACCGGAGTCACCTAGTGCAG  26800 fluorescence intensity (a.u.)
39. GTTTAAATATATTGTTCAACCTTTTACAAGATAAAAGGGTCGGAGTCACCTAGTGCAG  27300 fluorescence intensity (a.u.)
40. TTTGAGTATTTAGCAGCAAAAGCGGCTGTTGGCTGTGTGCCGGAGTCACCTAGTGCAG  31900 fluorescence intensity (a.u.)
41. ACCAAGCCACGGACTCCTCTAATTCTCTCTCTTGCTTTCTCGGAGTCACCTAGTGCAG  36100 fluorescence intensity (a.u.)
42. TAAAGTAAACTCGATCTCTTTCCGAGAAGTGTATTATTTTCGGAGTCACCTAGTGCAG  41400 fluorescence intensity (a.u.)
